{"sequences": {"note": "The chains behind the UniProt entries cited, without tags or fusion partners. Residues count along the entry.", "UniProt Q9UKV8, residues 229-348": "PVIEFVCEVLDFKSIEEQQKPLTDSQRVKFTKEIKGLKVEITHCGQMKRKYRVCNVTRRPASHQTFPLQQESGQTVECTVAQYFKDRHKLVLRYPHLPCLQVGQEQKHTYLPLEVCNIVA", "UniProt Q96AZ6": "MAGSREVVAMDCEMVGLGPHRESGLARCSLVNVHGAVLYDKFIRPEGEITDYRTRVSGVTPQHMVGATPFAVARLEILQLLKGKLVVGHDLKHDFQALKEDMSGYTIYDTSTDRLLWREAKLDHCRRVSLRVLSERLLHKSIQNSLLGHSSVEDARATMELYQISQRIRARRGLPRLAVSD"}, "source": "paper PMC10643408", "molecular_target": "isolated PAZ domain of human AGO2 (human) (UniProt Q9UKV8)", "assay": "SEC; Superdex 75 increase 10/300 GL; running buffer 150 mM NaCl, 20 mM Tris-HCl pH 7.5, 2 mM DTT; AGO2 PAZ domain, ISG20 or a mixture of both injected; mixture incubated on ice for 60 min before injection; both purified", "note": "Results are given in words; binding and its absence hold for the method and conditions named."}
{"substance": "interferon-stimulated gene 20 kDa (ISG20) (from UniProt Q96AZ6 1-181) (enzyme)", "values": [{"measurement": "binding", "result": "no binding (tested: 100 μmol injected (so in the source))"}]}
